No constants are given. Whether binding was seen depends on the method and setting. In cells and extracts the contact can be indirect. Binding can be weak; no strength is given. Sequences can lack the tags named with a protein.
Experiments:
[1] = molecular target: MBP-TET1 1–120, glutamine to alanine mutant within residues 109–120 (mouse) (UniProt Q3URK3); experiment: pull-down; MBP-tagged constructs co-expressed with NANOG constructs in E. coli; bacterial extract (25 mM Tris–HCl pH 8.0, 200 mM NaCl) on amylose resin, one wash, elution with 10 mM maltose, immunoblot of the eluate
[2] = molecular target: MBP-TET1 1–120, proline to alanine mutant within residues 109–120 (mouse) (UniProt Q3URK3); experiment: as above
[3] = molecular target: MBP-TET1 1–120, serine to alanine mutant within residues 109–120 (mouse) (UniProt Q3URK3); experiment: as above
[4] = molecular target: MBP-TET1 1–120, valine to alanine mutant within residues 109–120 (mouse) (UniProt Q3URK3); experiment: as above
[5] = molecular target: MBP-TET1 1–120, arginine to alanine mutant within residues 109–120 (mouse) (UniProt Q3URK3); experiment: as above
[6] = molecular target: (Flag)3-TET1(734–1169), isoleucine to alanine mutant within residues 1156–1169 (mouse) (UniProt Q3URK3); experiment: co-IP; (Flag)3-TET1 constructs and (HA)3-NANOG constructs expressed together in E14/T ESCs; Benzonase-treated nuclear protein extracts (350 mM KCl); TET1 immunoprecipitated by its Flag tag, immunoblot; for TET1(734–1169) also after phosphatase treatment of the extracts
[7] = molecular target: (Flag)3-TET1(1–1547) Δ1+2, serine to alanine mutant within residues 1522–1547 (mouse) (UniProt Q3URK3); experiment: as above
[8] = molecular target: (Flag)3-TET1(734–1169), proline to alanine mutant within residues 1156–1169 (mouse) (UniProt Q3URK3); experiment: as above
[9] = molecular target: (Flag)3-TET1(734–1169), leucine to alanine mutant within residues 1156–1169 (mouse) (UniProt Q3URK3); experiment: as above

By UniProt entry, the sequences of proteins in these tests, tags left out. Where a name states a change or a piece, a line headed by the entry shows the natural chain unless it says otherwise.
UniProt Q3URK3: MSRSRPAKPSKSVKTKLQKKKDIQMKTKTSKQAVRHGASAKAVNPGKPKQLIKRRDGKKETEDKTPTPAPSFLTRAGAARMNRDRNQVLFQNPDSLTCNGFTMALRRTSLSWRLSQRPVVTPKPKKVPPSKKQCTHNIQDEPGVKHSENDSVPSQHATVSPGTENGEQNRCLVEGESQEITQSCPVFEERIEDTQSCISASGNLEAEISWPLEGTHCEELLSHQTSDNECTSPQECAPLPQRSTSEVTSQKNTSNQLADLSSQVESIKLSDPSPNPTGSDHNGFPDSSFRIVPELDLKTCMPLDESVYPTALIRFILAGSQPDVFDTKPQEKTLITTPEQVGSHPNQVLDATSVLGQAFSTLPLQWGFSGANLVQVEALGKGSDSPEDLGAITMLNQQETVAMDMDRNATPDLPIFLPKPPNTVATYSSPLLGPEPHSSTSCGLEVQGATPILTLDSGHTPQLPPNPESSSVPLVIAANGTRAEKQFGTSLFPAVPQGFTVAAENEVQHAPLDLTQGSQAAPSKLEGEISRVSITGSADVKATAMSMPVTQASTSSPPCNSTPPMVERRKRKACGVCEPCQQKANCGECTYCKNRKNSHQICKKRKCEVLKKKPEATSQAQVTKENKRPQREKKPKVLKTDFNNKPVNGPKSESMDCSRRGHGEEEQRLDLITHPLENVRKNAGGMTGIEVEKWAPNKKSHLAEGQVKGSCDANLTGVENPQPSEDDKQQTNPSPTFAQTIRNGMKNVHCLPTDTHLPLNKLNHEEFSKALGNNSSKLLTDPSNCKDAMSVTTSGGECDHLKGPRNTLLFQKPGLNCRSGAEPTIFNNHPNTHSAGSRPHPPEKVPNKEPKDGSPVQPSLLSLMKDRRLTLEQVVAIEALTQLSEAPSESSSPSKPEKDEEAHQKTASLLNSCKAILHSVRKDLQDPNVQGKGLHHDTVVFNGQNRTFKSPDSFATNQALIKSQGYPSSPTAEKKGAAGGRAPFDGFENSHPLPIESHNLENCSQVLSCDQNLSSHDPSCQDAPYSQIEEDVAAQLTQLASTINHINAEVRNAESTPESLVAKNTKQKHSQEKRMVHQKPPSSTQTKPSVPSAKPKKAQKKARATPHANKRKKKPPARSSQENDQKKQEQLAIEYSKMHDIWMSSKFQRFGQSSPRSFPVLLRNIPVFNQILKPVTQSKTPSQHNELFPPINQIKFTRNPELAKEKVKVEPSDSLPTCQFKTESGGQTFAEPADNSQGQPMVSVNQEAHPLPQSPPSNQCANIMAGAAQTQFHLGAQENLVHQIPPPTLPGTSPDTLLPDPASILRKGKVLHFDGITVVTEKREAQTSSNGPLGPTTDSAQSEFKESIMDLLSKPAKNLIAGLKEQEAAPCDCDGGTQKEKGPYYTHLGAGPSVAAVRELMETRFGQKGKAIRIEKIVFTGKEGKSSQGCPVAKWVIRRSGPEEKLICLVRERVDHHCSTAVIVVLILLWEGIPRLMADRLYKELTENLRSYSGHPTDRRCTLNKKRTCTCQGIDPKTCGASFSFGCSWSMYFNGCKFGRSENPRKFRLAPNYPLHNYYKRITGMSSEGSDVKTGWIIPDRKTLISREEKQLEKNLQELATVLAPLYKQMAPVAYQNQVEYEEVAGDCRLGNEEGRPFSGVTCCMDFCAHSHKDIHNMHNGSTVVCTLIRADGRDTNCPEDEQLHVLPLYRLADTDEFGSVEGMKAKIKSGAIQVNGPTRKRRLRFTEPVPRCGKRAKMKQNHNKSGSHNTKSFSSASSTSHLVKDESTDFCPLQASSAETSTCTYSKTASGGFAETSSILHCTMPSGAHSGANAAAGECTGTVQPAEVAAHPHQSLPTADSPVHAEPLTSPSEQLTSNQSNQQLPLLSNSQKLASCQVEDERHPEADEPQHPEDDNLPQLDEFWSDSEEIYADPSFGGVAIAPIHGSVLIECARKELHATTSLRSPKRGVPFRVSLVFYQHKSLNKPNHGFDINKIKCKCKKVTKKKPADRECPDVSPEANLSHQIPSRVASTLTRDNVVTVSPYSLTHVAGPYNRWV

Measured: binding

B1: (His)6-NANOG (protein, UniProt Q80Z64 1-305)
chain: MSVGLPGPHSLPSSEEASNSGNASSMPAVFHPENYSCLQGSATEMLCTEAASPRPSSEDLPLQGSPDSSTSPKQKLSSPEADKGPEEEENKVLARKQKMRTVFSQAQLCALKDRFQKQKYLSLQQMQELSSILNLSYKQVKTWFQNQRMKCKRWQKNQWLKTSNGLIQKGSAPVEYPSIHCSYPQGYLVNASGSLSMWGSQTWTNPTWSSQTWTNPTWNNQTWTNPTWSSQAWTAQSWNGQPWNAAPLHNFGEDFLQPYVQLQQNFSASDLEVNLEATRESHAHFSTPQALELFLNYSVTPPGEI
binds: [1] | [2] | [3] | [4] | [5]

B2: (HA)3-NANOG (protein, UniProt Q80Z64 1-305)
chain: B1 chain
binds: [6] | [7] | [8] | [9]

— publication PMC7763487 (2020)
